# Some of the results follow.
# Sequences of proteins named here, by UniProt entry; tags and fusion partners are left off. A change or cut given only in a name is not applied to a line headed by its entry.
# UniProt O00571: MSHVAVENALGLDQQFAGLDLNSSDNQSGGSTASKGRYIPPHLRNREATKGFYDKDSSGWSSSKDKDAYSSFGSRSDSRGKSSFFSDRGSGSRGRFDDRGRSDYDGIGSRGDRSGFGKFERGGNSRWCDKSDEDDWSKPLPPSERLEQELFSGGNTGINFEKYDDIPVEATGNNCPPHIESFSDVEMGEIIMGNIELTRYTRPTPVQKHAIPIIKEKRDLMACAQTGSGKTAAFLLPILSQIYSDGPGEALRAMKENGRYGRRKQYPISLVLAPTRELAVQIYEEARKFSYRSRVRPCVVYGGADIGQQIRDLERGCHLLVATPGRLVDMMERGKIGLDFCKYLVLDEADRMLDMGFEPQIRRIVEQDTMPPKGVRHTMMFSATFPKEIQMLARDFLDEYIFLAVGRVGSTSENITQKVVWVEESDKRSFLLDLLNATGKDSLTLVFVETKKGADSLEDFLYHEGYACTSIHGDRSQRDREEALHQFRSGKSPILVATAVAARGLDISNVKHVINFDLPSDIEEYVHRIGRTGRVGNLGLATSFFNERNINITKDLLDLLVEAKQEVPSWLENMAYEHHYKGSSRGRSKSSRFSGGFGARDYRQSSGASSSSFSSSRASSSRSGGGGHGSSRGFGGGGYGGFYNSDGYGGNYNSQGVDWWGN
# UniProt Q7L014: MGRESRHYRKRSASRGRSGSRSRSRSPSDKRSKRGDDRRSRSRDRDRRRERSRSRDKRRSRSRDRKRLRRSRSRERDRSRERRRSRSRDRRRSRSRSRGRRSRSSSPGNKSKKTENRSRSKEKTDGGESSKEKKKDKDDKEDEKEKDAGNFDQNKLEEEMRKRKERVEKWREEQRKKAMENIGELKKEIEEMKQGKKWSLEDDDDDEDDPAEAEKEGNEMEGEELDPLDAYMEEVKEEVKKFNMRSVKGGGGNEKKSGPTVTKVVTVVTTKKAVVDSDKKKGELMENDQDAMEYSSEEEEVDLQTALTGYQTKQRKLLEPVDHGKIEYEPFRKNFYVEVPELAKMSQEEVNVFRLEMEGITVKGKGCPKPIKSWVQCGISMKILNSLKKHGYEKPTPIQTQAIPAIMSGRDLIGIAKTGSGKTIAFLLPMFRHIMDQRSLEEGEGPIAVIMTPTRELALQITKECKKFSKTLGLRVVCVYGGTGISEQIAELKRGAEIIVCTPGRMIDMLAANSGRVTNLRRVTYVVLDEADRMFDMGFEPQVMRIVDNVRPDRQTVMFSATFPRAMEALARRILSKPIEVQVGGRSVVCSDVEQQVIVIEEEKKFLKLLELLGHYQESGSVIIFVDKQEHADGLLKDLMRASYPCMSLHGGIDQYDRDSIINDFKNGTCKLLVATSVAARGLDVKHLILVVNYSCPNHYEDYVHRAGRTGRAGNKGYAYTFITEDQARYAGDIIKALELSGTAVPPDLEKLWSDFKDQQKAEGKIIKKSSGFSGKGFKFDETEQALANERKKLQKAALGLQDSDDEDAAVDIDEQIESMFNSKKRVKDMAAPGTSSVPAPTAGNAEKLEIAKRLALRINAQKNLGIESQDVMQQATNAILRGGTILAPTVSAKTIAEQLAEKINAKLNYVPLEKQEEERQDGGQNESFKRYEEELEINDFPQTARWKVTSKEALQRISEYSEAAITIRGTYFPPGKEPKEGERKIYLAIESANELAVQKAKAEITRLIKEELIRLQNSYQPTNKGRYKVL
# UniProt Q9NUU7: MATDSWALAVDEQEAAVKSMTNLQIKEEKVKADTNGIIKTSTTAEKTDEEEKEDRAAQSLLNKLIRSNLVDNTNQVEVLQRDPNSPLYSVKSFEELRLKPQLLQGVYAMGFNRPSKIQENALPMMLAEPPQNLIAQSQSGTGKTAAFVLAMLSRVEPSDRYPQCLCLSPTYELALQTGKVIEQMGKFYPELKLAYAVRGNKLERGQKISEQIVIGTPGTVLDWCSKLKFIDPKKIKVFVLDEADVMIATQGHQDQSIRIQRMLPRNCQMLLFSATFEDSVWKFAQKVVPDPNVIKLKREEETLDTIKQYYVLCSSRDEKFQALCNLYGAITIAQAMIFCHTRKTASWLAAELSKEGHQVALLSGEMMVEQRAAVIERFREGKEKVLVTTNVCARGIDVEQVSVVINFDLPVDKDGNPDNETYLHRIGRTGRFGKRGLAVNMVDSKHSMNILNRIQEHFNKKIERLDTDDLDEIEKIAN
# UniProt Q9UHI6: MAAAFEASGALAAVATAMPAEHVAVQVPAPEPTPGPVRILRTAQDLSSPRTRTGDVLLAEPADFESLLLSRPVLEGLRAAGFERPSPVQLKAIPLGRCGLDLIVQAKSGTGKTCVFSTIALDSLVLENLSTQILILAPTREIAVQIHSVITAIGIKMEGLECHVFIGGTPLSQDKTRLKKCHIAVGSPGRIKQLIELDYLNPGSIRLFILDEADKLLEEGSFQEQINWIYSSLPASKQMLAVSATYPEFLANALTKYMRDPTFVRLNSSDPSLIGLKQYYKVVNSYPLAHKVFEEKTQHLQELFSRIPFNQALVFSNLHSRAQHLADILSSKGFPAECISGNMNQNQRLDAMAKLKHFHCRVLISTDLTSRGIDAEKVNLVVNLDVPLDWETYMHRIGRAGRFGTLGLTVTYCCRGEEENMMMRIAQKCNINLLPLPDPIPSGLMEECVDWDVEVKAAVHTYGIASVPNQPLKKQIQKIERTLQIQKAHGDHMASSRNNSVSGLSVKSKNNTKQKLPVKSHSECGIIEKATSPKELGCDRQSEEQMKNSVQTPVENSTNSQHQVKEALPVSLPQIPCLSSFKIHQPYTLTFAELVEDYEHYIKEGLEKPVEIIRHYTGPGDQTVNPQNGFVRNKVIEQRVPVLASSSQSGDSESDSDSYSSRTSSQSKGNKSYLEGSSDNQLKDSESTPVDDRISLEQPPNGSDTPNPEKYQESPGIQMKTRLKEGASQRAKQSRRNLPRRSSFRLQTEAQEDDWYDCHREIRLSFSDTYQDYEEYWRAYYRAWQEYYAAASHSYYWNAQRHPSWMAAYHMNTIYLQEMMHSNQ
# UniProt Q8WYQ5: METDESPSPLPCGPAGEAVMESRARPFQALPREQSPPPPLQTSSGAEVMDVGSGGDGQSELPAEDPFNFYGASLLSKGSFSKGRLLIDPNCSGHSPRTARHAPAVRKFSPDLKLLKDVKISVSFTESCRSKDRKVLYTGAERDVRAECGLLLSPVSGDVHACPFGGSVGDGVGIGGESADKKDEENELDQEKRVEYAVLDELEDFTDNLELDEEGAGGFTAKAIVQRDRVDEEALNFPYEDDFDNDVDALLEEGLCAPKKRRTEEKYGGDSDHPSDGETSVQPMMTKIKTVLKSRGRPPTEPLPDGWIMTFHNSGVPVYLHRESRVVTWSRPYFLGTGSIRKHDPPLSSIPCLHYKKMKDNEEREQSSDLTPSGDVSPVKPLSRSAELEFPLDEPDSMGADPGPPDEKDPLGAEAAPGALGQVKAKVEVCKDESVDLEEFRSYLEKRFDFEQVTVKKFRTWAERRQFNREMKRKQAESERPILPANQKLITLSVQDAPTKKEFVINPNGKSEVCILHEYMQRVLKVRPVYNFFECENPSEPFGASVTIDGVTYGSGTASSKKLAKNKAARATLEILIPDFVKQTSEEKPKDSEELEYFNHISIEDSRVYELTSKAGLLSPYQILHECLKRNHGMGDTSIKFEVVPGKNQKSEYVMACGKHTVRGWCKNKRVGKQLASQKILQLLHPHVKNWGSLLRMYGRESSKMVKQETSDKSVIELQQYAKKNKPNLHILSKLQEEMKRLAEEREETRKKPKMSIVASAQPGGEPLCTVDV
# UniProt A2RUS2: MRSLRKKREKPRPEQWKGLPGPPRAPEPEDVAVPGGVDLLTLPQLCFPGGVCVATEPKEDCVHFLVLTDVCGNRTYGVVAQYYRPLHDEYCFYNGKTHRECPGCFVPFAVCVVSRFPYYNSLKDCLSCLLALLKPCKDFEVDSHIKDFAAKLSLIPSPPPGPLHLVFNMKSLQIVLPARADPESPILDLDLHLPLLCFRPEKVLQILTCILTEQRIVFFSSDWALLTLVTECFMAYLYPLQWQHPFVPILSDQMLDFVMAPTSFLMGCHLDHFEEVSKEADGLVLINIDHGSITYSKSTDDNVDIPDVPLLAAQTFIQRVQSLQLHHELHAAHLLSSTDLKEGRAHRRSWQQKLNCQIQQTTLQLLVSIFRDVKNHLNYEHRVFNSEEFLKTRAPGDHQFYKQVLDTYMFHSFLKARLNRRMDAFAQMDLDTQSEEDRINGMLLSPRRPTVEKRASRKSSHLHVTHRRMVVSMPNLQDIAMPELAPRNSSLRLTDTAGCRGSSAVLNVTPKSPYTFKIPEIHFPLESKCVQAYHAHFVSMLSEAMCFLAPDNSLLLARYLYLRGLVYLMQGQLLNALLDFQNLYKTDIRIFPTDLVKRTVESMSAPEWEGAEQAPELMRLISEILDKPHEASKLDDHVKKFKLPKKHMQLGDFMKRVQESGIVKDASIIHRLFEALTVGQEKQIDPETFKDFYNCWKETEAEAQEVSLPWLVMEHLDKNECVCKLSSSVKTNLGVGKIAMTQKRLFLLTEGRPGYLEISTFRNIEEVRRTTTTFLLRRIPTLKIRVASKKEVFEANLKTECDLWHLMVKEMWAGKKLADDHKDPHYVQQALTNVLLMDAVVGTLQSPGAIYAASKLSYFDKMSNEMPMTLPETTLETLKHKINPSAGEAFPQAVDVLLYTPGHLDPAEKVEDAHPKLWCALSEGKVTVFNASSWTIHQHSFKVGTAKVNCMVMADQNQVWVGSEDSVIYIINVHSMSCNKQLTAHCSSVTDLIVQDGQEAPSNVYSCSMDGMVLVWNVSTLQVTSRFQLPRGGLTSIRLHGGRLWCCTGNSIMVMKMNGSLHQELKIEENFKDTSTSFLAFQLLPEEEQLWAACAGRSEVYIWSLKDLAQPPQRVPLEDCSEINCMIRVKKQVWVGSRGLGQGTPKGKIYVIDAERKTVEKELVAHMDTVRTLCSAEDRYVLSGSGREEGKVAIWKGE
# UniProt P52429: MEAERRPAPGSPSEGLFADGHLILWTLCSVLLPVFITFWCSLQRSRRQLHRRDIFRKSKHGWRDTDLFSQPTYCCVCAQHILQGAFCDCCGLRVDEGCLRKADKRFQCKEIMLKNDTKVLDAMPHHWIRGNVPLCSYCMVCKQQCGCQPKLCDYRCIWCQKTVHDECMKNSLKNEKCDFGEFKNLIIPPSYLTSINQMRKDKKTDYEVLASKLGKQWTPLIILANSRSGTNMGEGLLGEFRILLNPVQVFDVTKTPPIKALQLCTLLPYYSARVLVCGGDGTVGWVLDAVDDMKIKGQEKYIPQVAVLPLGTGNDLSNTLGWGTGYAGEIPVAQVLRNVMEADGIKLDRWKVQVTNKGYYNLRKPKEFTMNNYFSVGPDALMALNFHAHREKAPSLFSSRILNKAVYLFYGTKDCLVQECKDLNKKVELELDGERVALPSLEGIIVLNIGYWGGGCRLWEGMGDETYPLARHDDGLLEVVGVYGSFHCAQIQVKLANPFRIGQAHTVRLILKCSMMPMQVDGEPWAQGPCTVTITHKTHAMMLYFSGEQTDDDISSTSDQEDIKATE
# UniProt Q9GZR7: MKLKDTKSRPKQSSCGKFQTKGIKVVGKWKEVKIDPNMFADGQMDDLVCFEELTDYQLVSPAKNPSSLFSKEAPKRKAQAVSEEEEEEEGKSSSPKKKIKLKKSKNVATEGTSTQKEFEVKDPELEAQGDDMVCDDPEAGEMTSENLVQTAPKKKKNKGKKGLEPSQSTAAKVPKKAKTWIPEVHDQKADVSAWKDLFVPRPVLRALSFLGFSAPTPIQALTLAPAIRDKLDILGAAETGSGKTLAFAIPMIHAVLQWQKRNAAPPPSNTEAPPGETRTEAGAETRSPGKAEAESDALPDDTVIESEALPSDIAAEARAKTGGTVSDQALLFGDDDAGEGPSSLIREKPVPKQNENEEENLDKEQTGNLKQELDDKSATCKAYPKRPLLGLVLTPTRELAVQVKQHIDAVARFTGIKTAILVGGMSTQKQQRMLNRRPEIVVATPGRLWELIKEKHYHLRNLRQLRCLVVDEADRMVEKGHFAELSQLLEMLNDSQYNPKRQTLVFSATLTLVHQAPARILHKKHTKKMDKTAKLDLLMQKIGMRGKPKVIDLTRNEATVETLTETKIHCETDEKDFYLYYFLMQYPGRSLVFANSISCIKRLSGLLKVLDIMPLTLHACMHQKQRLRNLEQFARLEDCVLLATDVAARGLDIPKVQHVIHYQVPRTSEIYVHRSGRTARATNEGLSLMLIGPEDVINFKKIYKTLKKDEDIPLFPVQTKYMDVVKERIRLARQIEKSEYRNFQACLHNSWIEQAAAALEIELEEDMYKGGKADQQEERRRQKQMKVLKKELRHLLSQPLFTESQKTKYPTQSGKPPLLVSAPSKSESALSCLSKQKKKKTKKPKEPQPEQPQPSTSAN
# Compound: Cc1cc(ccc1-c1ccccc1)C(=O)N1CCCN(CC1)C(=O)CCl [compound 10]
# Experiment: probe-labelled cysteine peptide fold change vs DMSO (competition) (log2 fold change); higher = less target engagement (more negative = stronger competition)
# Settings: THP-1, incubation time: 4 h
# 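Further: competitive profiling in live THP-1 cells: cysteine peptides tagged with an iodoacetamide desthiobiotin (IA-DTB) probe, intensity after compound treatment relative to DMSO-treated cells.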
Target,probe-labelled cysteine peptide fold change (10 µM),probe-labelled cysteine peptide fold change (50 µM)
DGKH_Q86XP1_1014_ICDAATIHCLLEQELAHAVNACSHALNK (UniProt Q86XP1),-0.0302,-0.505
DDX3X_O00571_223_RDLMACAQTGSGK (UniProt O00571),-0.107,0.0744
DDX17_Q92841_199_GGDVCPKPVFAFHHANFPQYVMDVLMDQHFTEPTPIQCQGFPLALSGR (UniProt Q92841),0.000804,-0.478
DDX3X_O00571_298_VRPCVVYGGADIGQQIR (UniProt O00571),0.0509,0.101
DDX41_Q9UJV9_568_QKVPPVLQVLHCGDESMLDIGGER (UniProt Q9UJV9),-0.0733,-0.298
DDX46_Q7L014_646_ASYPCMSLHGGIDQYDR (UniProt Q7L014),-0.0173,0.231
DENND4B_O75064_165_AAEGAGLHALGITDLCLVLPSK (UniProt O75064),0.381,0.134
DDX19A_Q9NUU7_392_VLVTTNVCAR (UniProt Q9NUU7),-0.00998,-0.0703
DDX5_P17844_354_CDELTR (UniProt P17844),-0.126,0.21
DDX60L_Q5H9U9_615_KLEDYLTSCASNSVK (UniProt Q5H9U9),-0.279,0.172
DDX39A_O00148_62_AIVDCGFEHPSEVQHECIPQAILGMDVLCQAK (UniProt O00148),0.144,0.0705
DDX58_O95786_428_NTDEALDYICK (UniProt O95786),0.349,-0.0256
DDX60_Q8IY21_857_HDALNCQVLITVPACFEILLLAPHR (UniProt Q8IY21),-0.185,0.181
DDX20_Q9UHI6_577_EALPVSLPQIPCLSSFK (UniProt Q9UHI6),-0.231,-0.487
DDX46_Q7L014_696_HLILVVNYSCPNHYEDYVHR (UniProt Q7L014),-0.0835,0.126
DDX3X_O00571_317_GCHLLVATPGR (UniProt O00571),0.139,-0.0375
DDX5_P17844_200_STCIYGGAPK (UniProt P17844),-0.0442,-0.0153
DDX6_P26196_390_NLVCTDLFTR (UniProt P26196),0.156,-0.0746
DDX17_Q92841_319_CTYLVLDEADR (UniProt Q92841),0.178,0.0942

Target,probe-labelled cysteine peptide fold change (10 µM),probe-labelled cysteine peptide fold change (50 µM)
DECR2_Q9NUI1_22_HLFCPDLLR (UniProt Q9NUI1),-0.0692,-0.35
DGCR8_Q8WYQ5_627_AGLLSPYQILHECLK (UniProt Q8WYQ5),0.505,0.0758
DDX51_Q8N8A6_187_WLAEPNCVR (UniProt Q8N8A6),-0.15,-0.388
DENND3_A2RUS2_61_EDCVHFLVLTDVCGNR (UniProt A2RUS2),0.111,-0.238
DDX59_Q5T1V6_414_NLPCANVR (UniProt Q5T1V6),-0.0371,-0.716
DDX19A_Q9NUU7_166_YPQCLCLSPTYELALQTGK (UniProt Q9NUU7),0.128,0.117
DDX46_Q7L014_478_VVCVYGGTGISEQIAELKR (UniProt Q7L014),0.037,-0.186
DDX5_P17844_170_TLSYLLPAIVHINHQPFLERGDGPICLVLAPTR (UniProt P17844),0.236,0.565
DDX17_Q92841_447_DGWPAMCIHGDK (UniProt Q92841),-0.193,-0.213
DENND1A_Q8TEH3_459_DIAENGCAPTPEEQLPK (UniProt Q8TEH3),-0.162,-0.204
DDX5_P17844_191_ELAQQVQQVAAEYCR (UniProt P17844),0.115,-0.161
DGKE_P52429_177_CDFGEFK (UniProt P52429),-0.0751,-0.0659
DGKZ_Q13574_265_SGLQHLAPPPPTPGAPCSESER (UniProt Q13574),-0.0942,-0.314
DDX39A_O00148_238_DIRPVCR (UniProt O00148),-0.1,-0.00495
DDX28_Q9NUL7_453_DILLCTDIASR (UniProt Q9NUL7),-0.0698,-0.248
DDX24_Q9GZR7_467_CLVVDEADRMVEK (UniProt Q9GZR7),0.0575,-0.0421
DDX27_Q96GQ7_248_ACIPVGLLGK (UniProt Q96GQ7),0.238,-0.122
DDX5_P17844_170_GDGPICLVLAPTR (UniProt P17844),0.398,0.233
DDX24_Q9GZR7_599_SLVFANSISCIK (UniProt Q9GZR7),0.147,0.498
